# From publication PMC8158775, “Structure–Activity Relationship Assessment of Sophorolipid Ester Derivatives against Model Bacteria Strains” (Molecules, 2021)
# Tested on: M1 activated macrophages (AMOs) from Raw 254.7 murine macrophages
# Assay: In vitro cytotoxicity study
# Type: cell-based
# Conditions: TI = EC50 macrophage/MIC B. cereus; EC50 = concentration causing 50% killing of macrophage after 16 h
# Text: A potential antimicrobial candidate must selectively kill pathogen cells without harming the host mammalian cells. To test the ability of SLs to effectively discriminate between bacteria and mammalian cells, a cytotoxicity assay was previously reported by our team. […] The therapeutic index (TI) is a parameter commonly used to determine potential drug selectivity. […] Generally, membrane-active agents are not considered for systemic administration directly, because of relatively low selectivity. Thus, designing suitable formulations and selecting suitable dose ranges are important in drug development.
smiles,measurement,value
COC(=O)CCCCCCC/C=C\CCCCCCC(C)OC1OC(CO)C(O)C(O)C1OC1OC(CO)C(O)C(O)C1O (stereo not shown) [SL-methyl ester],Therapeutic index (TI),>8
